Test results taken from the supplement of paper PMC3334620.
The full ranking holds about 33,000 sequences; the median of “E-score (-0.5 to 0.5)” is about -0.0034, and the highest 2% start at about 0.25. The list shows a part of the results.

What follows are sequences tested against T1, Yap3 (UniProt P38749) (assay: PBM E-score (8-mer binding enrichment) (E-score (-0.5 to 0.5)); higher = stronger / more preferred TF binding). Details: protein concentration: 100 nM; construct: GST-full length.
T1 sequence: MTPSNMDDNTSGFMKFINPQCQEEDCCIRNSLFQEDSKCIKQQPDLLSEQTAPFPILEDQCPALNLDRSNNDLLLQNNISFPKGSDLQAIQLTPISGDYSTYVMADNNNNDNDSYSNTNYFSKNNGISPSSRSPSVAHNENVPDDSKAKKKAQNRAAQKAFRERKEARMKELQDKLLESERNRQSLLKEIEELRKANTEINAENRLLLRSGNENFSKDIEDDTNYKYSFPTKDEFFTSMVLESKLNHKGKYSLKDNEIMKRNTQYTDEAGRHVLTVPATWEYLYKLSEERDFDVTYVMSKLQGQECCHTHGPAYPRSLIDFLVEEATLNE
Method: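 Universal 'all 10-mer' protein binding microarrays (Agilent AMADID 015681) probed with GST-tagged S. cerevisiae TFs (full-length or DBD) made by in vitro transcription/translation (PURExpress), about 100-200 nM. Bound TF was detected with fluorescent anti-GST. Each ungapped 8-mer (which stands for itself and its reverse complement) is scored by the PBM enrichment score (E-score), a modified Wilcoxon-Mann-Whitney statistic from -0.5 to +0.5, computed with the Universal PBM Analysis Suite. Scale: above 0.35 generally sequence-specific binding.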

Sequence | PBM E-score
CTAACTGC | 0.0427
CGCAGAGC | -0.0695
ATGCCCCC | -0.204
AACCCCCC | -0.443
ACGGCAAA | 0.134
AGCCCCCC | -0.423
CAATATCG | 0.0672
ACCCTTTA | 0.101
GAGGGCAC | -0.262
CCATTACA | 0.272
CGGAGCCA | -0.131
ATTATAAG | 0.0886
GCTTAGGA | 0.0143
ACATACAG | 0.129
AATGGTAG | 0.0426
GTCGCTGA | -0.0498
GACCACAA | -0.108
CCAATTAC | 0.274
CATCAAGG | -0.128
GTACTAAC | 0.136
CCGAAAAC | -0.0348
AAGACTGA | 0.0261

Sequence | PBM E-score
GAGACTAC | -0.101
ACCTACAG | -0.0362
CTCCGTGA | -0.0971
ATGTTTCG | 0.25
CGTGGTAA | -0.0407
CCACCTGG | -0.32
ATTTGTGC | 0.0412
ATCCACCG | 0.0749
CCCTTGAA | -0.0355
TAAGGAGA | -0.0697
ACCGCTAT | -0.0612
ATACTTGA | -0.138
AGAGATAG | 0.0415
GCCGGGCA | -0.245
AGACCGCG | -0.0512
ACTCGTAG | -0.0754
TCTAAGAA | 0.188
ACAATTAC | 0.203
GCCAGCGC | -0.205
AACCCCTA | -0.201
CAGACTGC | 0.00328
GTGAATGA | 0.0535

A stretch from further up, for reference:
Sequence | PBM E-score
ACCGCTAT | -0.0612
ATACTTGA | -0.138
AGAGATAG | 0.0415

Remaining list, next part:

Sequence | PBM E-score
ACTTTGGG | -0.115
AAGGTACG | 0.0472
GCAATGCA | -0.00493
AGAGCCTG | -0.104
AGCCGATC | 0.0299
CAGATACC | -0.0445
CCTATCAG | -0.0853
ATCAACGG | 0.182
AGTCAGAC | 0.0445
GAAAATGC | 0.0109
ACTGGTTG | 0.0576
CTAAAACA | 0.148
AGACTCAA | -0.15
CATTAGAG | 0.00896
CTTAGAAC | 0.0408
CCTCGGTC | -0.129
AATGAATG | 0.24
GGGGCGGA | -0.229
TACACTCA | 0.109
ACCCACCA | -0.0969
CATCCGGA | -0.125
ATGTCGAA | 0.0205

Sequence | PBM E-score
CATACACA | 0.0332
AATTAAAA | 0.177
ACGTTTAC | 0.0268
ATTCCCGA | 0.0393
CGAATGGA | 0.105
TGTTTTAA | 0.208
CATTACAC | 0.205
GGTTCTAA | 0.218
CGATATGC | 0.0243
GTCCACCA | -0.18
GCGTGAGC | 0.109
CAGTTTGG | -0.105
CCTCTTTC | -0.129
CTCTAGTA | -0.0476
AATTCTTC | 0.0549
ACCACGAT | 0.136
GCTCGTGA | -0.0796
AGTAGTCC | -0.0537
AAGTGGCG | 0.157
CTGAAGGA | -0.168
